These are yes or no findings as the source states them, for the method shown. In cells and extracts the contact can be indirect. Some results given as binding are weak or reduced against the parent protein; the word gives no strength. Sequences can lack the tags named with a protein.
Experiments:
[1] = biological target: T1, GFP-tagged full-length CBAP (human) (UniProt Q8N9M5); assay: co-IP; HEK293T co-transfected with GFP or CBAP-GFP and Flag-TSC2, HA-Akt1 or myc-TSC1; anti-GFP immunoprecipitation, blot with tag-specific antibodies
T1 sequence: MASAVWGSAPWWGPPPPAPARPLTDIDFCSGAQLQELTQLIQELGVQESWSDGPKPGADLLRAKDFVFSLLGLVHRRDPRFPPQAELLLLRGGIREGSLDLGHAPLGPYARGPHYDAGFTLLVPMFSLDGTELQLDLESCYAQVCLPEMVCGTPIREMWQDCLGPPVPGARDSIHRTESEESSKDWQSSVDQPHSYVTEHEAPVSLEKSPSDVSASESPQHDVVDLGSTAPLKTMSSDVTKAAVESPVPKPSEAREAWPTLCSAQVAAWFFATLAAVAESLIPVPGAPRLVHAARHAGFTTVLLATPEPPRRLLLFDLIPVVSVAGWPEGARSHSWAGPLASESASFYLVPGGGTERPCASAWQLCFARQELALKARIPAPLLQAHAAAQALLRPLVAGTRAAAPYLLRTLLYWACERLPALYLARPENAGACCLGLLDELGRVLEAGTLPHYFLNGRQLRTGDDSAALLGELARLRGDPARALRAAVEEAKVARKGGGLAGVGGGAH

The chains behind the UniProt entries cited, without tags or fusion partners.
UniProt P49815: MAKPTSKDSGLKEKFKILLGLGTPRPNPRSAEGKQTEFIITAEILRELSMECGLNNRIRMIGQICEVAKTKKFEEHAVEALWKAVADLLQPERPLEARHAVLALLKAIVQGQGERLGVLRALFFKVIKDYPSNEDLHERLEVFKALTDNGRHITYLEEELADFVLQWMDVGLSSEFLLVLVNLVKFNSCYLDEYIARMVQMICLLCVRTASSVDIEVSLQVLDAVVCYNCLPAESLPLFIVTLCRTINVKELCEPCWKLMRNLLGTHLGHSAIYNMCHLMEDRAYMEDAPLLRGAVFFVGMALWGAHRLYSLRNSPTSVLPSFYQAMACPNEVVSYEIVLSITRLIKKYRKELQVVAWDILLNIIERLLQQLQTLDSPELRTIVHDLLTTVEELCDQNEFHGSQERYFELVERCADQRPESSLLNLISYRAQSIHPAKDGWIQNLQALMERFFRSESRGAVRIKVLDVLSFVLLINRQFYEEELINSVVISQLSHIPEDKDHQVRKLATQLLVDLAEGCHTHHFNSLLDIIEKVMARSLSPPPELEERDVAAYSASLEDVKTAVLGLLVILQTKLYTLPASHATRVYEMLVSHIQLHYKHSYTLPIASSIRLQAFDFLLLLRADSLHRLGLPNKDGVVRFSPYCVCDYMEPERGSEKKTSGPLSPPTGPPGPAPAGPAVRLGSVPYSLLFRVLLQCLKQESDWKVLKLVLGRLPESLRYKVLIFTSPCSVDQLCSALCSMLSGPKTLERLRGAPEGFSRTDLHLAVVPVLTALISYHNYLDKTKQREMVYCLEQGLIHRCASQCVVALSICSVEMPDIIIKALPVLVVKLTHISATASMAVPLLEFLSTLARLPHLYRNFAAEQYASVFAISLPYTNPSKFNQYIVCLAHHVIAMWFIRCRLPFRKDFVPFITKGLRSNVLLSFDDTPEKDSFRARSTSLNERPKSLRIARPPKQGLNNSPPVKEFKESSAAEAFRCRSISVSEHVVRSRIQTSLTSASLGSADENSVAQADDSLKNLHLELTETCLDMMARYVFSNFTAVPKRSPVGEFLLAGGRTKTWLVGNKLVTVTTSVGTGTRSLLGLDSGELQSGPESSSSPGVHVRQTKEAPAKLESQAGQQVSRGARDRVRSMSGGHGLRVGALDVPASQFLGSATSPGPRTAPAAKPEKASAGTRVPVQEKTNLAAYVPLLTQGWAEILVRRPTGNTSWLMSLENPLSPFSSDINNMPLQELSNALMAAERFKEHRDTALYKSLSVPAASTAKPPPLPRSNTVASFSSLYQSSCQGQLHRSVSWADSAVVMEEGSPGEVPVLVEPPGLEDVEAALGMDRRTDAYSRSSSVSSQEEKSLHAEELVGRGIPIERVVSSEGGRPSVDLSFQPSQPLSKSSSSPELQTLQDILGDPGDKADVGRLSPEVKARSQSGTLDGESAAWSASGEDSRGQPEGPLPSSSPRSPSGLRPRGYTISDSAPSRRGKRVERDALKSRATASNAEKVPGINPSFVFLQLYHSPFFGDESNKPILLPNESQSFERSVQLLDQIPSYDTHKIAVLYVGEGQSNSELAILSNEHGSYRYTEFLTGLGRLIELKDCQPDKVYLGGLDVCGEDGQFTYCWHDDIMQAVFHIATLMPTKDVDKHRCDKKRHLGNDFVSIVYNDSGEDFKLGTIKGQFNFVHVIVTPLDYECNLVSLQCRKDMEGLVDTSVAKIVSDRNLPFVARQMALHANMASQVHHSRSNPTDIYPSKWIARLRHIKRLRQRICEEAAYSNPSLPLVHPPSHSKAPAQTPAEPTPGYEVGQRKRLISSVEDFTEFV
UniProt P31749: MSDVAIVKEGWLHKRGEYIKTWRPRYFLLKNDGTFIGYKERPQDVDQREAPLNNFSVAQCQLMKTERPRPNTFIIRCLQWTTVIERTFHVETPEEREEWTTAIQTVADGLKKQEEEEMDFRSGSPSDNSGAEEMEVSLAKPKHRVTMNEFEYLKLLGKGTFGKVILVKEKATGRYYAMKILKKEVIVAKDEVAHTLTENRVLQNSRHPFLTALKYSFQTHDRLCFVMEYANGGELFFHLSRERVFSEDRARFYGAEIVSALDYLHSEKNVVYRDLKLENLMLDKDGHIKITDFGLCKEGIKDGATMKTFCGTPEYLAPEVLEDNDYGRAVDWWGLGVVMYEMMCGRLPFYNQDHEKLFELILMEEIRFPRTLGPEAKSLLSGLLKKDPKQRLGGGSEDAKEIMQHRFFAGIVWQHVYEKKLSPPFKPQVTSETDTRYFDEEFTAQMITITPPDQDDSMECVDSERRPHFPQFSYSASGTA

[2] = biological target: T2, CBAP deletion mutant M8, GFP-tagged (human) (UniProt Q8N9M5); assay: co-IP; CBAP-KO HEK293T co-transfected with full-length or truncated CBAP-GFP, myc-Akt1 and Flag-TSC2; anti-GFP or anti-Flag immunoprecipitates blotted
T2 sequence: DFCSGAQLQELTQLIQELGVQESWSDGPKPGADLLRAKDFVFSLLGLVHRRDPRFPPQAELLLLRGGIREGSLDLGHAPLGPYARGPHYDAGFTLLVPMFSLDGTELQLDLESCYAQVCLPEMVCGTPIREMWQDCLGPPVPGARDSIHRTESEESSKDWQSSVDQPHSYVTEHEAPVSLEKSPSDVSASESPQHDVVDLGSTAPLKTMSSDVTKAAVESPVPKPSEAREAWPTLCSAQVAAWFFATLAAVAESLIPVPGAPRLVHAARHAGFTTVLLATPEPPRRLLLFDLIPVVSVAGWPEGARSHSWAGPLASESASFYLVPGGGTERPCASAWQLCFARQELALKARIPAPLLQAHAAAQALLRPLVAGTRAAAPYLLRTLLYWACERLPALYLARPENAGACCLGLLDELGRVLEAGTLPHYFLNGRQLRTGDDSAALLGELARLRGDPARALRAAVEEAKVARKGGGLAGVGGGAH

[3] = biological target: T1, GFP-tagged full-length CBAP (human); assay: as above
[4] = biological target: TSC2 (endogenous) (human (endogenous in Jurkat, CCRF-CEM, HeLa)) (UniProt P49815); assay: co-IP; anti-CBAP immunoprecipitation from lysates of Jurkat cells expressing GFP vector or GFP-N26-CBAP, immunoblot

In the case of HA-Akt1 (from UniProt P31749 1-480), the binding [1] is reported as “binds”.

With myc-Akt1 (from UniProt P31749 1-480) the binding [2] was “binds” and the binding [3] was “binds”.

In the case of MASAVWGSAPWWGPPPPAPARPLTDI (peptide, UniProt Q8N9M5 1-26) [GFP-N26-CBAP], the binding [4] is reported as “binds”.

B1: Myc-TSC1 (protein, UniProt Q92574 1-1164)
chain: MAQQANVGELLAMLDSPMLGVRDDVTAVFKENLNSDRGPMLVNTLVDYYLETSSQPALHILTTLQEPHDKHLLDRINEYVGKAATRLSILSLLGHVIRLQPSWKHKLSQAPLLPSLLKCLKMDTDVVVLTTGVLVLITMLPMIPQSGKQHLLDFFDIFGRLSSWCLKKPGHVAEVYLVHLHASVYALFHRLYGMYPCNFVSFLRSHYSMKENLETFEEVVKPMMEHVRIHPELVTGSKDHELDPRRWKRLETHDVVIECAKISLDPTEASYEDGYSVSHQISARFPHRSADVTTSPYADTQNSYGCATSTPYSTSRLMLLNMPGQLPQTLSSPSTRLITEPPQATLWSPSMVCGMTTPPTSPGNVPPDLSHPYSKVFGTTAGGKGTPLGTPATSPPPAPLCHSDDYVHISLPQATVTPPRKEERMDSARPCLHRQHHLLNDRGSEEPPGSKGSVTLSDLPGFLGDLASEEDSIEKDKEEAAISRELSEITTAEAEPVVPRGGFDSPFYRDSLPGSQRKTHSAASSSQGASVNPEPLHSSLDKLGPDTPKQAFTPIDLPCGSADESPAGDRECQTSLETSIFTPSPCKIPPPTRVGFGSGQPPPYDHLFEVALPKTAHHFVIRKTEELLKKAKGNTEEDGVPSTSPMEVLDRLIQQGADAHSKELNKLPLPSKSVDWTHFGGSPPSDEIRTLRDQLLLLHNQLLYERFKRQQHALRNRRLLRKVIKAAALEEHNAAMKDQLKLQEKDIQMWKVSLQKEQARYNQLQEQRDTMVTKLHSQIRQLQHDREEFYNQSQELQTKLEDCRNMIAELRIELKKANNKVCHTELLLSQVSQKLSNSESVQQQMEFLNRQLLVLGEVNELYLEQLQNKHSDTTKEVEMMKAAYRKELEKNRSHVLQQTQRLDTSQKRILELESHLAKKDHLLLEQKKYLEDVKLQARGQLQAAESRYEAQKRITQVFELEILDLYGRLEKDGLLKKLEEEKAEAAEAAEERLDCCNDGCSDSMVGHNEEASGHNGETKTPRPSSARGSSGSRGGGGSSSSSSELSTPEKPPHQRAGPFSSRWETTMGEASASIPTTVGSLPSSKSFLGMKARELFRNKSESQCDEDGMTSSLSESLKTELGKDLGVEAKIPLNLDGPHPSPPTPDSVGQLHIMDYNETHHEHS
In the case of B1, the binding [1] is reported as “no binding”.
